The supplement of paper PMC10849652
This is one part of the list.

Chains of the proteins cited; added tags and fusions are not shown. Lines headed by an entry give the natural chain unless they say otherwise; changes in a name come on top.
UniProt Q96HA4: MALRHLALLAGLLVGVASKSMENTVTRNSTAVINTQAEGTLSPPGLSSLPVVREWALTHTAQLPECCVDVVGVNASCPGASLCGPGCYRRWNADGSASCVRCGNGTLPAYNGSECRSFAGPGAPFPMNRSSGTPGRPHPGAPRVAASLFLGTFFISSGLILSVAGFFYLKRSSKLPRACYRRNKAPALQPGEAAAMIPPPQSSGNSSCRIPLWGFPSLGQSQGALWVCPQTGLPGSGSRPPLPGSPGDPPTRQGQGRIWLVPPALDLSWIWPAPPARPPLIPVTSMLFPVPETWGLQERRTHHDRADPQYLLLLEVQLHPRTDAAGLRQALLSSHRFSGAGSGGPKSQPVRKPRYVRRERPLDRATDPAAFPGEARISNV
UniProt Q504U0: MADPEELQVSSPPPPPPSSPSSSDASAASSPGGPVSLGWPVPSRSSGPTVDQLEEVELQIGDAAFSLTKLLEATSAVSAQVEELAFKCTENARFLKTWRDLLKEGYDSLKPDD
UniProt Q96F05: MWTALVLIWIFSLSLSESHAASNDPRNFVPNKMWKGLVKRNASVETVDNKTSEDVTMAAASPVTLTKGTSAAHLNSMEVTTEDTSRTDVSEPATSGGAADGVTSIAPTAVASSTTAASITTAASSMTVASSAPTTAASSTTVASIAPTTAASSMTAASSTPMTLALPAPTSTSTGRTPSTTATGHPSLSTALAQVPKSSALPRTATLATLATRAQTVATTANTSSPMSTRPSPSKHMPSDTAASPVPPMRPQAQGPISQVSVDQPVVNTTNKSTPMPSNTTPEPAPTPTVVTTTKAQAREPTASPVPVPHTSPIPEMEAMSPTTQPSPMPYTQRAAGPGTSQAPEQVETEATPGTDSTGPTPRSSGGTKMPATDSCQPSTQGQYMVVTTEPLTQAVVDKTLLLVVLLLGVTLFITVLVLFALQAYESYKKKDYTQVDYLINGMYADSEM
UniProt Q96N11, whole entry, looked up: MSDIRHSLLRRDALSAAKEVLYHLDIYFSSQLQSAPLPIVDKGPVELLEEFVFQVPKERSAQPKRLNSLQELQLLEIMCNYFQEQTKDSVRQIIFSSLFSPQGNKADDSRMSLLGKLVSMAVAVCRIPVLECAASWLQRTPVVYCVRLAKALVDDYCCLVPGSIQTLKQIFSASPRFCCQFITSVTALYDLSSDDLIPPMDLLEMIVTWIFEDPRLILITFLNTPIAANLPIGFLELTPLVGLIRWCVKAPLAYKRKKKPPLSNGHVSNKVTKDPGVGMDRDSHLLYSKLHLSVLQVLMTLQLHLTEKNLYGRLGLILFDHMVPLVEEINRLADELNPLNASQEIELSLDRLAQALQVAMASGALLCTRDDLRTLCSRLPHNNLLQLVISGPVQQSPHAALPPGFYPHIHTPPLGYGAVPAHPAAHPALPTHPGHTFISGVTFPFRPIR
UniProt P07451: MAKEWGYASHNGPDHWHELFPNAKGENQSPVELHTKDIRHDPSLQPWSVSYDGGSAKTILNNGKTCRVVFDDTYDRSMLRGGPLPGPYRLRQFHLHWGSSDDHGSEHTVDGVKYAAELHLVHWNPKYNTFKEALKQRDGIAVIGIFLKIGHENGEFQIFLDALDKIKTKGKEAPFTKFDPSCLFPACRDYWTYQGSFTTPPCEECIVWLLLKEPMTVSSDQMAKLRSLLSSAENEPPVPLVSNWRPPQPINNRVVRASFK
UniProt Q05682: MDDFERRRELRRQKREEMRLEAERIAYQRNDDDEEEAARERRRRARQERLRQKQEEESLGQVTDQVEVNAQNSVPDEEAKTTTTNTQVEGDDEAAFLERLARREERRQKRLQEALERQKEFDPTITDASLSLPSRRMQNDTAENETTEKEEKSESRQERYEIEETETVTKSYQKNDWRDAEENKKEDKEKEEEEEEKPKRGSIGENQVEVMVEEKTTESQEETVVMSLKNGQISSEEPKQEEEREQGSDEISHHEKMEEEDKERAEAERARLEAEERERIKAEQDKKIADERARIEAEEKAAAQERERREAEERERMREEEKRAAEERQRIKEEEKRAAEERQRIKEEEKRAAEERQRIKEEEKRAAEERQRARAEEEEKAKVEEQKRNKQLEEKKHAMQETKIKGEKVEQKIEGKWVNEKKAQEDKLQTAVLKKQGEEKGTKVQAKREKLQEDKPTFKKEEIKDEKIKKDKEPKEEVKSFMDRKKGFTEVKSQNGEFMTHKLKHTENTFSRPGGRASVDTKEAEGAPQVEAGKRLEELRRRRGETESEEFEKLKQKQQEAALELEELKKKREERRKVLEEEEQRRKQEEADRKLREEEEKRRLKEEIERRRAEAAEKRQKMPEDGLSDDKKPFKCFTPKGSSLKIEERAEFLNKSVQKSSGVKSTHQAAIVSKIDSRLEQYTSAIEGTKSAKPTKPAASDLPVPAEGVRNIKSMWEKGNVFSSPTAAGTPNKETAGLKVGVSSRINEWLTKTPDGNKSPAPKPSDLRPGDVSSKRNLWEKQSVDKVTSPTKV
UniProt Q9UPA5: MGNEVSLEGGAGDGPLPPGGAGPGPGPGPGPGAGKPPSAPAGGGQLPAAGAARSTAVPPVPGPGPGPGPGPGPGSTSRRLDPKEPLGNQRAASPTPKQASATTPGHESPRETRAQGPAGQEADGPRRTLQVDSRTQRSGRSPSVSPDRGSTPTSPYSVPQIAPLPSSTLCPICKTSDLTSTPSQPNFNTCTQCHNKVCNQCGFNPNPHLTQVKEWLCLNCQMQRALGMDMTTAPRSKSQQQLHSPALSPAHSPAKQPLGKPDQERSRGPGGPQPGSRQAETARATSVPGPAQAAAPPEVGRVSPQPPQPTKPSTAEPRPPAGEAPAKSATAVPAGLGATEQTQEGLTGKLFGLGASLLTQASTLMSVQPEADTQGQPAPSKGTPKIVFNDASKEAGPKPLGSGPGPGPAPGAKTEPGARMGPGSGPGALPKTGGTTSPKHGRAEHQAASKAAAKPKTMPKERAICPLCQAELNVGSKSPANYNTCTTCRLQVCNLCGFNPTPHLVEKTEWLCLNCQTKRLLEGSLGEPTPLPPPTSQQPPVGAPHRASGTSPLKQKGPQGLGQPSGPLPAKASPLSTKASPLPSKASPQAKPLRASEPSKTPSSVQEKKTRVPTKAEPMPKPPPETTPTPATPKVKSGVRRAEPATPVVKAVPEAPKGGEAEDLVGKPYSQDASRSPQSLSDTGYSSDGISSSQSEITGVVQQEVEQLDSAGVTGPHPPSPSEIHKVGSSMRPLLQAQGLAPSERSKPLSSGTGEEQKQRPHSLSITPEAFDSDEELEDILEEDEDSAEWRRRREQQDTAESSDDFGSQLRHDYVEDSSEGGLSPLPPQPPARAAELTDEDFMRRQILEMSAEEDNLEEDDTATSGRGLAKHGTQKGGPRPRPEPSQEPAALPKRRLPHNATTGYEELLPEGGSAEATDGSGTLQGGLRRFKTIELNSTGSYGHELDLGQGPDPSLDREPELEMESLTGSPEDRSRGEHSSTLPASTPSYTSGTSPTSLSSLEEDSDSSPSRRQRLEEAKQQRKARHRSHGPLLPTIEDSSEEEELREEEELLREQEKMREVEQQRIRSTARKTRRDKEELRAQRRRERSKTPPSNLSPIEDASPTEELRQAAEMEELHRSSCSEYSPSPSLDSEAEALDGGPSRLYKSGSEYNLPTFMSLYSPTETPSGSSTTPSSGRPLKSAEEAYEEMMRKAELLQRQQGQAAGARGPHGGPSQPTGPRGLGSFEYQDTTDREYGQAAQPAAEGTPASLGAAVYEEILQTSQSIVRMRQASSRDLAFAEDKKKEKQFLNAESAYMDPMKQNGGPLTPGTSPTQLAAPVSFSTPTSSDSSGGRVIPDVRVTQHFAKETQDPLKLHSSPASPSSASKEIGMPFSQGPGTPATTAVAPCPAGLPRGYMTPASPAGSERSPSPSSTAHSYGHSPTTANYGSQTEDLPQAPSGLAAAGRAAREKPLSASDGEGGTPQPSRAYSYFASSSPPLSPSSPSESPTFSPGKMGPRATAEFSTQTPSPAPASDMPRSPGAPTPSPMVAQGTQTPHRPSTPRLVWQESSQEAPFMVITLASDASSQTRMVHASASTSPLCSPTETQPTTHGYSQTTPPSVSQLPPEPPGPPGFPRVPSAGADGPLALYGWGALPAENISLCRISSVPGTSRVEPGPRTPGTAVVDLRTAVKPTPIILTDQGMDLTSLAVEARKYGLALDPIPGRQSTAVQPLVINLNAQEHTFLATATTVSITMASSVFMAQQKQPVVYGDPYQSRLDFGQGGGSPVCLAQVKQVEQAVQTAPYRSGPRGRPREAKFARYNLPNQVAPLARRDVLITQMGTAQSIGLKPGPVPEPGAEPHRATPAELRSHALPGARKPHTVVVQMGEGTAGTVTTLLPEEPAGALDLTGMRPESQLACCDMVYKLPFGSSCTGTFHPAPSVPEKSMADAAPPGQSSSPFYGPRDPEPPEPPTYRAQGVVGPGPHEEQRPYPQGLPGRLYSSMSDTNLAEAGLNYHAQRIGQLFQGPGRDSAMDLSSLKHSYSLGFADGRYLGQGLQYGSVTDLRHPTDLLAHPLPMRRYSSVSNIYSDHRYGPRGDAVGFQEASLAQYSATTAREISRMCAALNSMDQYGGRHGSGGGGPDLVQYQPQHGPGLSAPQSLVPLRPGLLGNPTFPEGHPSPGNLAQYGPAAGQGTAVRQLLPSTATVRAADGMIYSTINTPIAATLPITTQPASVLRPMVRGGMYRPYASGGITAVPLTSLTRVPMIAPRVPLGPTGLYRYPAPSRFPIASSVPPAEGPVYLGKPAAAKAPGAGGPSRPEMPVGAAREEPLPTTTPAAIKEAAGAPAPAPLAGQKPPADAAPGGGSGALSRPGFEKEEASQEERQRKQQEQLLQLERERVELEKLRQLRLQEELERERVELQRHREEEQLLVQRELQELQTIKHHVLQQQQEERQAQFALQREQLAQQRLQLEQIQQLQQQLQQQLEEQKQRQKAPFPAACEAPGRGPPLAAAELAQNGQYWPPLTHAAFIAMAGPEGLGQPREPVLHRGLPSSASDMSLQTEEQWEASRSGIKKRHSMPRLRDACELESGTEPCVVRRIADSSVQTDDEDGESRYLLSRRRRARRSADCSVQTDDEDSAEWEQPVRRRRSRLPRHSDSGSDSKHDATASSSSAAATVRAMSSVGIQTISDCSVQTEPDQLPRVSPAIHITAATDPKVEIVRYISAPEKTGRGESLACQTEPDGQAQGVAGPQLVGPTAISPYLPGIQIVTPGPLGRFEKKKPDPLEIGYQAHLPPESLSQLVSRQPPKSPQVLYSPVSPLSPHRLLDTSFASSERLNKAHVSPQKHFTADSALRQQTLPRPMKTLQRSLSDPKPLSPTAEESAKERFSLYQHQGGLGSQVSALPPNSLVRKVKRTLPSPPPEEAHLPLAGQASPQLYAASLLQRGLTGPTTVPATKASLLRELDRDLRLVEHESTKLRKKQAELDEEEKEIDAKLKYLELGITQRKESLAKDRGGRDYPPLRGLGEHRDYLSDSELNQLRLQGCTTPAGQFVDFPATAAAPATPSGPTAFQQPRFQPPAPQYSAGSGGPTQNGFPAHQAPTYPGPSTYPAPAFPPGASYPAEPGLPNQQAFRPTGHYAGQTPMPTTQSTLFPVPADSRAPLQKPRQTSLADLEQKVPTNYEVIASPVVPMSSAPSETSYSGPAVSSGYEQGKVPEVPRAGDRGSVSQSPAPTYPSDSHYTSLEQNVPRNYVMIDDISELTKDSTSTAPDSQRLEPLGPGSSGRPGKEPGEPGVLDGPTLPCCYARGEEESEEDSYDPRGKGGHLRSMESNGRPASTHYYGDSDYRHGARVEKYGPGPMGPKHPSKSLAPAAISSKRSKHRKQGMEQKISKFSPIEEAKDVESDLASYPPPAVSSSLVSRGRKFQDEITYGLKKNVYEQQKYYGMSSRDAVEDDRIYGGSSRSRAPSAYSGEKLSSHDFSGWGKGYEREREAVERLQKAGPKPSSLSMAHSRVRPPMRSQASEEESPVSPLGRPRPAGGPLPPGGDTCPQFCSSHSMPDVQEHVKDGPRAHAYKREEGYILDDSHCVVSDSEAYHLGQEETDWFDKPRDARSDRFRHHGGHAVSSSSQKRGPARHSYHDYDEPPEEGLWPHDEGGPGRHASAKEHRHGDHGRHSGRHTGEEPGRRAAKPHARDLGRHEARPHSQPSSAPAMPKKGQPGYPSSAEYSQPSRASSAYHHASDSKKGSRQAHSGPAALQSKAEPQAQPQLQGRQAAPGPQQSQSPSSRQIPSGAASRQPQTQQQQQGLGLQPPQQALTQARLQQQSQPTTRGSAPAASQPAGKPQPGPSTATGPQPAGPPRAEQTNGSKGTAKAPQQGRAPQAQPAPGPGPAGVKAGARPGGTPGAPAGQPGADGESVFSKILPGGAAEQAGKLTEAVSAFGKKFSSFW
UniProt Q7Z7L8: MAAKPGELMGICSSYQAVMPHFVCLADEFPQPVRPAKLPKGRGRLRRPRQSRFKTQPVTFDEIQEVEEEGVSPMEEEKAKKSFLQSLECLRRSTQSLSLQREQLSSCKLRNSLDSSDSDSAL

Experiments:
Assay in all cases: log2 fold change, soluble protein after heating vs DMSO (PISA); higher = thermal stabilisation; K562 cells, 10 uM, 30 min; active = over 0.2 and 3.5 SD of the protein, either way, in both replicates (recomputed)
[1] = compound: CCn1cc(-c2ccnc3[nH]c(-c4cccc(CN(C)C)c4)cc23)c(-c2ccc(NC(=O)N(C)C)cc2)n1
Outline: (§1)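 Quantification of soluble protein used TMTpro 16plex LC-MS/MS, with channel sums equalised. Samples were the supernatant after 21,000xg for 90 min of pooled aliquots from K562 cells (2×10^6 cells/mL) treated with 10 μM compound for 30 min, heated for 3 min over 48°C-58°C, and extracted in PBS with 0.5% NP-40 at 4°C. Values, from duplicates, describe thermal stability against control samples on a log2 fold-change scale.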

[2] = compound: CN(C)CC(=O)Nc1ccc2[nH]c(=O)c3ccccc3c2c1
Outline: as §1

[3] = compound: CN(CCOC1=CC=C(C=C1)C[C@H]2C(=O)NC(=O)S2)C3=CC=CC=N3 (racemic) [rosiglitazone]
Outline: as §1

[4] = compound: CN1CCC(CNc2ccc3ncc(-c4cccc(OC(F)(F)F)c4)n3n2)CC1
Outline: as §1

[5] = compound: CC[C@H](C)N1C=C(C2=C(C=C(C=C21)C3=CN=C(C=C3)N4CCNCC4)C(=O)NCC5=C(C=C(NC5=O)C)C)C
Outline: as §1

[6] = compound: CC[C@H](C)[C@@H](C(=O)N[C@@H]([C@@H](C)O)C(=O)N[C@@H](CC(C)C)C(=O)[C@]1(CO1)C)NC(=O)[C@H]([C@@H](C)CC)N(C)C(=O)C [epoxomicin]
Outline: as §1

[7] = compound: CCn1c(C(=O)N(C2CC2)C2CC2)cc2c3c(ncn3C)c(Nc3cc(C)n(C)n3)nc21
Outline: as §1

[8] = compound: CN1C2=C(C3=C1C(=O)N(N=C3)CC4=CC(=CC=C4)N)SC(=C2)S(=O)C
Outline: as §1

[9] = compound: CC[C@@H]1C(=O)N(C)c2cnc(Nc3ccc(C(=O)N[C@H]4CC[C@H](N5CCN(CC6CC6)CC5)CC4)cc3OC)nc2N1C(C)C [volasertib]
Outline: as §1

Measured: log2 fold change

C1orf159 isoform 4 (UniProt Q96HA4)
inactive: [1] -0.219 | [2] -0.061 | [3] -0.009 | [4] -0.101

C4orf46 (UniProt Q504U0)
inactive: [5] 0.265

C11orf24 (UniProt Q96F05)
inactive: [6] -0.256 | [7] -0.009 | [3] 0.129

C7orf26 (UniProt Q96N11)
inactive: [5] -0.009 | [6] 0 | [7] -0.02 | [2] -0.019 | [3] -0.147

CALM1 (UniProt G3V361)
inactive: [7] 0.282 | [8] 0.001

CA3 (UniProt P07451)
inactive: [6] -0.215

CALD1 (UniProt Q05682)
inactive: [9] -0.573 | [6] -0.243 | [7] -0.065 | [1] -0.325 | [4] -0.071

BSN (UniProt Q9UPA5)
inactive: [2] -0.131

C19orf57 (UniProt Q0VDD7)
inactive: [7] -0.046 | [1] 0.192 | [2] -0.081 | [3] -0.07 | [8] 0.075 | [4] -0.011

C11orf96 (UniProt Q7Z7L8)
inactive: [9] 0 | [6] 0.136 | [1] 0.065 | [2] -0.366 | [4] 0.018
